The campaign covered roughly 2,000 compounds. About 190 (9.5%) were called active. Roughly 14% stayed inconclusive and do not appear here.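 Rule for the calls: active = fitted activation curve crossing 40% at a concentration no higher than the sample's top valid tested dose; inconclusive = flat fitted curve at 30% to 70% activation, or poor curve fit; inactive = signal decrease, flat curve within 30%, or the rest.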 The list lacks most of the strong results.
Assay: sustained heat shock response element induction – cell-based, mouse, luciferase, cherry-pick, dose, confirmation (AID 602296);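 note: test compounds applied by themselves with no MG132 co-treatment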
Conditions: NIH3T3-HGL HSF-1 response element luciferase, 48 h; at 26 µM (top of the series) unless noted

Row | SMILES | activation
1 | O=C(Nc1cccc(Cl)c1)C1CCCN(S(=O)(=O)c2ccc(F)cc2)C1 (stereo not drawn) | inactive: -0.929%
2 | O=C(c1nnsc1S(=O)c1ccc(Cl)cc1)N1CCOCC1 (stereo not drawn) | inactive: -104%
3 | Cc1nc2ccccc2n1CC(O)COCC1CC=CCC1 (stereo not drawn) | inactive: -34.1%
4 | COc1ccc2c(c1)-c1c(sn(-c3ccccc3)c1=S)C(C)(C)N2 | inactive: -74.9%
5 | CCOc1ccc(N2C(=O)/C(=C\c3ccc(O)c(OC)c3)S(=O)(=O)C2c2cccc([N+](=O)[O-])c2)cc1 (stereo not drawn) | inactive: -19.8%
6 | COc1ccc(-n2c(SCc3ccc([N+](=O)[O-])cc3)nnc2-c2ccc(C)cc2)cc1 | inactive: -39.7%
7 | Oc1c(Br)cc(Br)cc1C=Nc1cccc2ncccc12 | inactive: -4.96%
8 | Oc1c(C(c2ccccn2)N2CCOCC2)ccc2cccnc12 (stereo not drawn) | inactive: -44%
9 | CCOC(=O)c1c(NC(C)=O)sc2c1CCC(C=NCCCN(CC)CC)=C2Sc1ccccc1 | inactive: 13%
10 | Cc1ccc2c(c1)c(C)c(C)n2CC(O)Cn1nc(C)c(Br)c1C (stereo not drawn) | inactive: -92.5%
11 | O=C1/C(=N\S(=O)(=O)c2cccs2)C([n+]2cccc(Cc3ccccc3)c2)=C([O-])c2ccccc21 | inactive: -48.6%
12 | Cc1ccc(N=C2NC(=O)CS2)cc1 | inactive: -15.4%
13 | CCc1ccc(NC(=O)CSc2nc3n[nH]c(C)c3c(=N)n2-c2cccc(OC)c2)cc1 | inactive: -49.1%
14 | COC(=O)c1cc(S(=O)(=O)C(C)C)c(S(C)=O)s1 (stereo not drawn) | inactive: -10.3%
15 | COc1cc(C2CC(c3cccnc3)=NN2c2ccc(F)cc2)cc(OC)c1OC (stereo not drawn) | inactive: -5.22%
16 | CN(C)CCN1C(=O)C2C(C(=O)Nc3cc(Cl)cc(Cl)c3)C3C=CC2(O3)C1C(=O)NC1CCCCC1 (stereo not drawn) | inactive: -7.89%
17 | CCN(CC)S(=O)(=O)c1cccc(C(=O)OCC(=O)N2CC(=O)Nc3ccccc32)c1 | inactive: 4.57%
18 | CCOC(=O)c1sc2c(c1C)C(c1cccs1)C1=C(CCCC1=O)N2 (stereo not drawn) | inactive: -78.9%
19 | COc1ccc(OC)c(NC(=O)CNC(c2ccccc2)c2ccccc2)c1 | inactive: -71.9%
20 | O=C(CCC(=O)N1CCN(c2ccc(O)cc2)CC1)c1ccc(Br)cc1 | inactive: 3.02%
21 | Cc1cc(C)c(C(=O)/C=C/c2cccc3ccccc23)c(=O)[nH]1 | inactive: 7.58% [at 6 µM]
22 | NC(=O)c1nsc(C(=O)N(c2ccccc2)C(C(=O)NCC2CCCO2)c2cccs2)c1N (stereo not drawn) | inactive: -3.85%

Row | SMILES | activation
23 | N#CC1=C(N)N2C(=C(C#N)C13CCCCC3)SC1CCCCC12O (stereo not drawn) | inactive: -12.5% [at 12 µM]
24 | Cc1c(C(=O)OCC2CCCO2)[nH]c2c1C(=O)CC(c1ccco1)C2 (stereo not drawn) | inactive: -6.77%
25 | CCOC(=O)Cc1nnc(Nc2cccc(C)c2)c2ccccc12 | inactive: -10.6%
26 | CC(Cc1ccc(O)c(O)c1)C(C)Cc1ccc(O)c(O)c1 (stereo not drawn) | inactive: -2.89%
27 | O=C(COC(=O)/C=C/c1cccc([N+](=O)[O-])c1)NCc1ccco1 | inactive: -2.07%
28 | O=C(c1ccc2c(=O)n3c(nc2c1)CCCCC3)N1CCN(C(c2ccccc2)c2ccccc2)CC1 | inactive: -37.2%
29 | C=C1CCC[C@]2(C)C[C@H]3OC(=O)C(CNC(CC)CO)[C@H]3CC12 (stereo partly drawn) | inactive: -28.1%
30 | CN1CCN(C(c2ccc(Cl)cc2)c2cc(Cl)c3cccnc3c2O)CC1 (stereo not drawn) | inactive: -88.1%
31 | O=[N+]([O-])c1c(NCCCO)cc(Sc2ccc(Cl)cc2)c2nonc12 | inactive: -103%
32 | CCOc1ccc2ncc(S(=O)(=O)c3ccc(C)cc3)c(N3CCC4(CC3)OCCO4)c2c1 | inactive: -75.3%
33 | CCOC(=O)N1CCC(NC(=O)c2cccs2)CC1 | inactive: -11.4%
34 | CCN(CC)S(=O)(=O)c1ccc(N2CCOCC2)c(NC(=O)c2cc3ccccc3oc2=O)c1 | inactive: -9.23%
35 | COC(=O)c1ccccc1NC(=S)N(Cc1ccc2c(c1)OCO2)Cc1cc2ccc(OC)cc2[nH]c1=O | inactive: -6.89%
36 | CC1CCN(C(c2ccc(N(C)C)cc2)c2nnnn2Cc2ccccc2)CC1 (stereo not drawn) | inactive: -12.3%
37 | N#Cc1c(NC(=O)CSc2nnc(-c3ccccc3)o2)sc2c1CCCC2 | inactive: 12.1%
38 | COc1cc(C(=O)NCCc2ccc(F)cc2)ccc1OCC(=O)N1CCOCC1 | inactive: 2.48%
39 | CCC1C(=NO)C(CC)C(c2ccccc2)NC1c1ccccc1 (stereo not drawn) | inactive: -80.8%
40 | COc1ccc(-c2nnc(Nc3ccc(CC(N)=O)cc3)c3ccccc23)cc1 | inactive: -7.72%
41 | CC(C)CN(C(=O)c1cccs1)C1CCS(=O)(=O)C1 (stereo not drawn) | inactive: -11.8%
42 | Cc1nn(-c2cccc(Cl)c2)c2c1C(c1ccncc1)C(C#N)=C(N)O2 (stereo not drawn) | inactive: -24.3%
43 | COc1ccc(-c2c(C)nn3c(Cl)c(C)c(C)nc23)cc1 | inactive: -0.691%
44 | CCNc1ccc(S(=O)(=O)N(C)C)cc1NCC(=O)Nc1ccccc1Br | inactive: -25.4%

Row | SMILES | activation
45 | N#Cc1ncc(Cc2ccccc2)nc1C#N | inactive: -35%
46 | CC(=O)NCCn1ccc2ccccc21 | inactive: 7.55%
47 | Cc1ccccc1N(C(=O)c1csnn1)C(C(=O)NC(C)(C)C)c1ccncc1 (stereo not drawn) | inactive: 14.5%
48 | O=C(Cn1nc(-c2ccccc2Cl)ccc1=O)Nc1ccccc1-c1ccccc1 | inactive: -21.6%
49 | O=C(COC(=O)c1ccccc1C(=O)c1ccccc1)Nc1cccc([N+](=O)[O-])c1 | inactive: -14.3% [at 12 µM]
50 | c1ccc(-c2nc(NCc3cccnc3)c3oc4ccccc4c3n2)cc1 | inactive: -4.47%
51 | O=S(=O)(c1ccc(Oc2ccccc2)cc1)N1CCOCC1 | inactive: -20.1%
52 | CC(C)[C@H](NC(N)=O)C(=O)NNC(=O)COc1cccc(C(F)(F)F)c1 | inactive: 6.56%
53 | O=S(=O)(NC1c2cccc3cccc(c23)C1N1CCNCC1)c1ccc(Cl)cc1 (stereo not drawn) | inactive: -6.13%
54 | COCCN(CCOC)c1nc(-c2ccc(C)cc2)nc2ccccc12 | inactive: -14.3%
55 | Cc1ccc(S(=O)(=O)NCCOc2nc(N3CCOCC3)nc(N3CCOCC3)n2)cc1 | inactive: -2.81%
56 | CC(Oc1ccc(Cl)cc1)C(=O)/C=C/N(C)C (stereo not drawn) | inactive: -17.7%
57 | Clc1ccc(CO/N=C/c2c(-c3ccccc3)nc3n2CCS3)c(Cl)c1 | inactive: -67.9%
58 | CCOC(=O)CN1CCC(c2cc(-c3ccc(Cl)cc3)n[nH]2)CC1 | inactive: 5.04%
59 | Cc1c(N=C2SCC(=O)N2/N=C\c2ccc(Br)cc2)c(=O)n(-c2ccccc2)n1C | inactive: -7.73%
60 | CCCn1c(C)nc2c(c1=O)c1nc3ccccc3nc1n2CCC1=CCCCC1 | inactive: -20.8%
61 | Cn1c(SCc2cccc(C(F)(F)F)c2)nnc1-c1ccco1 | inactive: 6.26%
62 | Cc1cc(C)n(Cc2ccc(Cl)cc2Cl)c(=O)c1S(=O)(=O)c1ccccc1 | inactive: -5.83%
63 | ClC(Cl)(Cl)c1nc2ccccc2n2nncc12 | inactive: -92.4%
64 | CCc1ccccc1NC1=NCC(=O)N1C1CCCCC1 | inactive: -15.7%
65 | CCOc1ccccc1CN1CCN(Cc2cn(C)nc2-c2ccccc2)CC1CCO (stereo not drawn) | inactive: 11.8%
66 | COC(=O)c1cc2c(ccn2-c2ccc(F)cc2)n1Cc1ccc(C#N)cc1 | inactive: -15%

Row | SMILES | activation
67 | C=CCNC(=O)CSc1nnc(C(CC)N(C)C)n1C1CCCCC1 (stereo not drawn) | inactive: 6.83%
68 | Clc1ccc(N=c2ssnc2Cl)nc1 | inactive: 20%
69 | CCCCOCCCN1CC(=O)N2[C@@H](Cc3c([nH]c4ccccc34)C2(C)C)C1=O | inactive: -3.37%
70 | O=C1CC(c2ccc(Cl)cc2)n2nc(NS(=O)(=O)c3ccc(F)cc3)nc2N1 (stereo not drawn) | inactive: 2.36%
71 | Cn1c(CNc2cccc(Cl)c2)nnc1SCC#N | inactive: -6.44%
72 | Cc1ccc(C)c(NC2CCCCC2NS(=O)(=O)c2ccccc2)c1 (stereo not drawn) | inactive: -16.6%
73 | Cc1cc(N(C)C)c(C#N)c(NCc2ccccc2)n1 | inactive: -12.7%
74 | c1ccc2c(C3=NNC(=NC4CC4)SC3)c[nH]c2c1 | inactive: -91.2%
75 | CCC(CC)COC(=O)C1=C(C)NC(=O)NC1c1cc(OC)ccc1OC (stereo not drawn) | inactive: -49.7%
76 | O=C(C1=C[C@@H](C2CC2)C[C@@H](OCc2ccc(CO)cc2)O1)N1CCN(Cc2ccccc2)CC1 | inactive: -34.9%
77 | C=CCn1c(SCC(=O)NC2CCCC2)nc2scc(-c3ccco3)c2c1=O | inactive: -12.3%
78 | O=c1[nH]c(CSc2ccccn2)nc2c1oc1ccccc12 | inactive: -99.2%
79 | CC(NC(=O)CCCN1C(=O)c2ccccc2C1=O)c1ccc2c(c1)CCCC2 (stereo not drawn) | inactive: -3.36%
80 | Cc1nn(-c2ccccc2)c2sc(C(=O)N(Cc3ccco3)C(C)C(=O)NC(C)(C)C)cc12 (stereo not drawn) | inactive: -69.8%
81 | CC(=O)Cc1cc(O)c2ccccc2c1OC(=O)c1ccccc1 | inactive: 9.89%
82 | CCN1CCSc2ccc(C(=O)NCc3cccc(Br)c3)cc21 | inactive: -27.4%
83 | Cc1nc(CN2CCN(Cc3nc(C(c4ccccc4)c4ccccc4)no3)CC2)cs1 | inactive: -11.6%
84 | CCCCN(CC)c1nc(N)c2c(N)nc(OCC)cc2c1C#N | inactive: -8.49%
85 | CCOC(=O)c1cnc(-c2ccccc2)nc1Oc1ccc(C)cc1 | inactive: 20.7%
86 | COc1ccc(NC(=O)CN(C)S(=O)(=O)c2ccc(Br)s2)cc1OC | inactive: -3.57%
87 | COC(=O)C1=C(C)NC2=C(C(=O)CC(C)(C)C2)C1c1cn(Cc2ccc(Br)cc2)nc1-c1ccccc1 (stereo not drawn) | inactive: -41.5%
88 | Cc1ccc(NC(=O)c2sc3ncn(CC(=O)N4CCOCC4)c(=O)c3c2C)c(Br)c1 | inactive: -7.54%

Molecules above with a nitro group on carbon:
Row | SMILES | activation
5 | CCOc1ccc(N2C(=O)/C(=C\c3ccc(O)c(OC)c3)S(=O)(=O)C2c2cccc([N+](=O)[O-])c2)cc1 (stereo not drawn) | inactive: -19.8%
6 | COc1ccc(-n2c(SCc3ccc([N+](=O)[O-])cc3)nnc2-c2ccc(C)cc2)cc1 | inactive: -39.7%
27 | O=C(COC(=O)/C=C/c1cccc([N+](=O)[O-])c1)NCc1ccco1 | inactive: -2.07%
31 | O=[N+]([O-])c1c(NCCCO)cc(Sc2ccc(Cl)cc2)c2nonc12 | inactive: -103%
49 | O=C(COC(=O)c1ccccc1C(=O)c1ccccc1)Nc1cccc([N+](=O)[O-])c1 | inactive: -14.3% [at 12 µM]

The list goes on.

Row | SMILES | activation
89 | COc1ccc(NC(=O)c2[nH]c(C)c(C(C)=O)c2C)cc1S(=O)(=O)Nc1ccc(Br)cc1 | inactive: -28.5%
90 | Cc1cc(C)cc(NC(=O)CN2C(=O)NC(C)(c3ccccc3)C2=O)c1 (stereo not drawn) | inactive: -8.91%
91 | Cc1ccc(-n2nc3c(c2NC(=O)c2ccc4c(c2)OCO4)CSC3)c(C)c1 | inactive: 7.18%
92 | CCC(c1nnnn1Cc1ccco1)N(Cc1cc2cc(OC)ccc2[nH]c1=O)C1CCCCC1 (stereo not drawn) | inactive: -28.1%
93 | O=[N+]([O-])c1c(Nc2ccccc2O)cc(Cl)c2nonc12 | inactive: -109%
94 | Fc1ccc(-c2nc(-c3cnccn3)no2)c(Cl)c1 | inactive: -77.6%
95 | COC(=O)c1c(C)oc2ccc(N(C(=O)Oc3ccccc3)S(=O)(=O)c3ccccc3)cc12 | inactive: -33.5% [at 12 µM]
96 | C/C(=N\Nc1nc(C)cc(-c2ccccc2)n1)c1ccc(C)o1 | inactive: 3.52%
97 | COc1ccc(Cl)cc1N1C(=O)/C(=C\c2sccc2C)N=C1SCC(=O)NC1CC1 | inactive: -11.2%
98 | CCn1c(SC)nnc1C1CCCN(CC(=O)Nc2ccccc2N2CCOCC2)C1 (stereo not drawn) | inactive: -7.41%
99 | O=C1CC(N2CCC(c3nc4ccccc4[nH]3)CC2)C(=O)N1c1ccccc1F (stereo not drawn) | inactive: -18.8%
100 | COc1ccc(S(=O)(=O)N[C@@H](Cc2ccccc2)C(=O)N2CC[C@@]3(O)CCCC[C@H]3C2)cc1 | inactive: -0.963%
101 | Cc1ccc(C(=O)NCC(C)NC(=O)c2ccc(C)c([N+](=O)[O-])c2)cc1[N+](=O)[O-] (stereo not drawn) | inactive: 3.13%
102 | CNC(=S)NCCC(c1ccccc1)c1ccccc1 | inactive: -6.46%
103 | CC(=O)OC(C)C(=O)NS(=O)(=O)c1ccc(C)cc1 (stereo not drawn) | inactive: -18.8%
104 | CCOC(=O)c1c(NC(=O)c2nn(CC)cc2Br)c(C#N)nn1-c1ccccc1 | inactive: -52.7%
105 | CCOc1ccc(C(=O)NC2CC3CCCC(C2)N3CC(C)C)cc1 (stereo not drawn) | inactive: -2.9%
106 | Cc1cccc(OCC(=O)Nc2ccc3c(c2)nc(CCN2CCCCC2)n3C)c1 | inactive: -7.85%
107 | CC(=O)Oc1c(Cl)cc(N(C(C)=O)S(=O)(=O)c2ccccc2)c2ccccc12 | inactive: -23.1%
108 | CC1=CN2C(=N)/C(=C/c3ccc([N+](=O)[O-])o3)C(=O)N=C2S1 | inactive: -102%

Source: PubChem BioAssay AID602296 (Broad Institute, 2012)
